Reference: PMC12098889, “Structural insight into PIF6-mediated red light signal transduction of plant phytochrome B” (Cell Discovery, 2025)
The exact form of at least one protein or probe is not confirmed. Weaker means in comparison with the reference protein, sequence or condition of that experiment. Where a protein sequence is shown, tags need not be part of it. At least one verdict was read from the data and is not stated in words by the source.

Biological target: T1, PIF6αΔC (PIF6ΔC) (Arabidopsis) (UniProt Q8L5W7)
T1 sequence (looked up): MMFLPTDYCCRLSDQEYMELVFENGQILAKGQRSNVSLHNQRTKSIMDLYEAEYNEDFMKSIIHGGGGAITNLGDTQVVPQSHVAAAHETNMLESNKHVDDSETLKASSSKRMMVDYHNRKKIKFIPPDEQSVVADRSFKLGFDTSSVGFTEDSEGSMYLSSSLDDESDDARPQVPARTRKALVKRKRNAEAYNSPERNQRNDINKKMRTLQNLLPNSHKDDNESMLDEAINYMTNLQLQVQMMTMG
Experiment: EMSA
Conditions: EMSA: 20 mM HEPES pH 7.8, 75 mM KCl, 5 mM MgCl2, 5 mM DTT, 0.5 mg/mL BSA, 10% glycerol, 200 ng/mL heparin, on ice 60-90 min, 15 nM probe, 6% native gel, recombinant protein, residues 1-247, label: 5' FAM

[1] = phyB Y276H,Q109A 0.75-6.0 uM, little influence

Sequence	binding result (no phyB, 0.375-3.0 uM protein)	binding result [1]	binding result (phyB (1-1172) in the dark (Pr), 0.75-6.0 uM, little effect)	binding result (phyB (1-1172) under red light (Pfr), 0.75-6.0 uM, part of probe retained in well)
ATCAACACAGAGAAACCACCTGTTTGTTCAAGATCAAA (double strand) [FT-E Box4]	binds	binds	–	–
GGCCGAGGTGAGTAGGACACGTGGACACGTCTTCCGAA (double strand) [G-wt]	binds	binds	binds	binds more weakly
AATAGGTGACTATTCTCAAATGTCCTGGTTCTATCTAA (double strand) [FT-E Box2]	binds	binds	–	–
AAGAAGAGAAATAAAACAATTGATTTGGTTTATATTAT (double strand) [FT-E Box1]	binds	binds	–	–
AAAAATTAGTGGCTACCAAGTGGGAGATATAATTTGGA (double strand) [FT-E Box3]	binds	binds	–	–
